In this experiment the target is T1, CBP80/CBP20 complex (human, UniProt Q09161 20-790; P52298 1-156, limits assumed).
T1 construct: Used in the fluorescence polarization assays; In the crystal it also carried the cap analogue (m7GpppG / m7GpppA); also called CBC complex; CBC
T1 sequence (looked up) 1: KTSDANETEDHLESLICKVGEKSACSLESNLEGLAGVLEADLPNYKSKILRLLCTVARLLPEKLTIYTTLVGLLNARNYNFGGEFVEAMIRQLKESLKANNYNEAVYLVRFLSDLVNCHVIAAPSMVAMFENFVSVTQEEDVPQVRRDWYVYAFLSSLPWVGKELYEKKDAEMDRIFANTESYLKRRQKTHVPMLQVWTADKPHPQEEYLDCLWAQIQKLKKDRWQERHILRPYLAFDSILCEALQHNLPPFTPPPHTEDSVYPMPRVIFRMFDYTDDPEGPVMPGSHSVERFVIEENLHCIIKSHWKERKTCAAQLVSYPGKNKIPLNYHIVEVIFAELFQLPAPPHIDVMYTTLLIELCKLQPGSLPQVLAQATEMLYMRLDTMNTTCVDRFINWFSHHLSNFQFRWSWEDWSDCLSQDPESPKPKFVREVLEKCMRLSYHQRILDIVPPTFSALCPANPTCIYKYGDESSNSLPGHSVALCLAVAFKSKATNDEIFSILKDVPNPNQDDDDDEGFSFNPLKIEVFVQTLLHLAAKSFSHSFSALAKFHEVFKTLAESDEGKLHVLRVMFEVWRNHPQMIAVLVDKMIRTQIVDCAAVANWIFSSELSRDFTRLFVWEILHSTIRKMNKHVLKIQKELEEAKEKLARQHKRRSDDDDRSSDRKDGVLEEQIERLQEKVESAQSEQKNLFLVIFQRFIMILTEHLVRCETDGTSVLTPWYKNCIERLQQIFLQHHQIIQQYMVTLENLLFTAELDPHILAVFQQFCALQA
T1 sequence (looked up) 2: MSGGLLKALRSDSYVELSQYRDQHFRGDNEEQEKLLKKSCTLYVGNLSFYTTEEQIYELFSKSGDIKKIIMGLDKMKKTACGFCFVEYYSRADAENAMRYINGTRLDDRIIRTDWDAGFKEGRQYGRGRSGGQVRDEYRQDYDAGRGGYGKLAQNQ
Kind of experiment: FP competition assay.

The values that follow come from US20180362587A1, “Compositions and Methods for Inhibiting CBP80 Binding to PGC1 Family of Co-Activators” (University of Rochester, priority 2015, published 2018).

These are yes or no findings as the source states them, for the method shown. Some binding calls cover weakened binding; strength is not graded here.

In the case of MAFDSLLKNAAAS (N-terminal acetyl; C-terminal amide) [PGC1β-13 (Ac-…-NH2)], the binding result was “binds”.

MAFDSLLKAAQQS (N-terminal acetyl; C-terminal amide) [PGC1β-15 (Ac-…-NH2)]: the binding result is “binds”.

For SLDFDSLLKEAQRSLRR (N-terminal acetyl; C-terminal amide) [PGC1α-Cterm (Ac-…-NH2)], the binding result is given as “binds”.

MAFDSMLKAAQQS (N-terminal acetyl; C-terminal amide) [PGC1β-17 (Ac-…-NH2)]: the binding entry was “binds”.

Regarding MAFDSLLKNAAQS (N-terminal acetyl; C-terminal amide) [PGC1β-14 (Ac-…-NH2)], the binding entry is “binds”.

SLDFDDLLKQAQKNLRR (N-terminal acetyl; C-terminal amide) [PRC-Cterm (Ac-…-NH2)]: the binding result is listed as “binds”.
